# About 2,100 (0.66%) of roughly 320,000 compounds were called active. The shares of active, inactive and inconclusive entries below differ from those in the screen. Calls follow the shape of the dose curve; as a rule, active = well fitted inhibition curve with a large enough effect in the signal ratio, with a control signal flat (not every such curve was filed as active); inconclusive = small, poorly fitted or top-dose-only effect, or effect the other way, or a change in a side signal; inactive = flat fitted curve, though single readings scatter; the % refers to the signal ratio. A potency beside an inconclusive call is a rough fit, not a confirmed value.
# Assay: qHTS Assay for Lipid Storage Modulators in Drosophila S3 Cells
# Settings: BODIPY lipid droplet fluorescence, 18-24 h, cells fed with added oleic acid; lipid storage change, negative = inhibition: at 46.1 µM (top of the series) unless noted
# Procedure, shortened: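 Laser-scanning cytometry quantifies lipid droplet accumulation (500–530 nm total intensity; droplet/cell object ratio) in oleic acid-fed (400 uM added) Drosophila S3 cells treated with a concentration series. 20 uM Triacsin C defined 100% inhibition.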
# % is scaled to controls: 0 for no effect and ±100 for the full control effect; potency is read from the fitted curve at half-maximal effect.
Compound,Potency,outcome,"lipid storage change, negative = inhibition"
O=C(O)c1cc2c(ccc3ccccc32)o1,"inconclusive: 18400 nM [activator, single point]",,
COc1cc(CN(CC2CCCO2)C(=O)c2ccco2)cc(OC)c1OC (stereo unspecified),"inconclusive: 29100 nM [falling, single point]",,
CC(=O)NCC1CCCN(C(=O)c2oc3c(F)cccc3c2C)C1 (stereo unspecified),,inactive [at 46.1 µM],
COc1ccc(S(=O)(=O)N2CCN(C(=O)CCCN3C(=O)NC4(CCCC4)C3=O)CC2)cc1,"inconclusive: 731 nM [activator, single point]",,
Cc1cccc(N(C(=O)CNC(=O)c2ccco2)C(C(=O)NCC2CCCO2)c2ccccc2)c1 (stereo unspecified),,,inconclusive: 24.2%
Cc1ccc(NC(=O)CSc2nnc(COc3ccc(C#N)cc3)n2-c2ccccc2)cc1C,"inconclusive: 1460 nM [activator, full curve]",,
CC(C)NC(=O)NC(=O)COC(=O)c1cccc(OC(F)F)c1,,,inconclusive: 23.9%
CN(c1ccc(C(=O)NCCSCc2ccccc2)cc1)S(=O)(=O)c1ccccc1,"inconclusive: 11600 nM [falling, single point]",,
CCCCCCCc1c(C#N)c(N)[nH]c(=S)c1C#N,,,inconclusive: 13.3%
COc1cccc(-c2nnc3sc(C4CCCCC4)nn23)c1,"inconclusive: 3260 nM [activator, partial curve]",,
Cn1c(/C=C/c2ccc(Cl)cc2)nc2ccccc2c1=O,,,inconclusive: -33.5%
CC(C)c1nnc(NC(=O)C2CCCN(C(=O)Nc3ccc(F)cc3)C2)s1 (stereo unspecified),"inconclusive: 51.7 nM [falling, full curve, poor fit]",,
Cc1cc(NC(=O)CSc2nccn2-c2ccc(Cl)cc2)no1,"inconclusive: 103 nM [falling, partial curve, poor fit]",,
Cc1ccccc1CN1CCN(C(=O)c2cc(-c3ccncc3)nc3ccccc23)CC1,,,inconclusive: 50.6%
Cc1ccnn1CCSCC(=O)O,,,inconclusive: -34.8%
COc1cc(COC(=O)c2cnc(C)cn2)c(OC)cc1Br,active: 517 nM,,
O=S(=O)(c1ccc2nc(SCc3ccc(Cl)cc3)[nH]c2c1)N1CCOCC1,,,inconclusive: -42%
Cc1cccc2sc(NC(=O)CN(C)S(=O)(=O)c3cccs3)nc12,"inconclusive: 29100 nM [activator, single point]",,
CC(OC(=O)CNC(=O)c1sc2ccccc2c1Cl)c1ccccc1 (stereo unspecified),,,inconclusive: 15.2%
O=C(NCC1CCCO1)c1ccc2c(=O)n(CCc3ccccc3)c(=O)[nH]c2c1 (stereo unspecified),,,inconclusive: 12.9%
O=C(NNC1=NS(=O)(=O)c2ccccc21)c1ccc([N+](=O)[O-])cc1,,,inconclusive: -6.25%

# Look-ups from the results shown.
# Cc1cccc(N(C(=O)CNC(=O)c2ccco2)C(C(=O)NCC2CCCO2)c2ccccc2)c1 (stereo unspecified) – lipid storage change, negative = inhibition: inconclusive: 24.2%
# Cc1cccc2sc(NC(=O)CN(C)S(=O)(=O)c3cccs3)nc12 – Potency: inconclusive: 29100 nM [activator, single point]

# — PubChem BioAssay AID2685 (National Center for Advancing Translational Sciences (NCATS), 2010)
